# PubChem BioAssay AID504786, Drosophila RNAi Screening Center – 2011
# Screen: 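Fly genes required for HIF-dependent transcription when hypoxia is mimicked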 (primary screen)
# Cell system: Drosophila S2 cells with a stable HIF luciferase reporter
# Reagents: long dsRNA against Drosophila genes, about 0.2 µg dsRNA per well of a 384-well plate
# Duration: three days of knock-down, then 20 h of DFO before reading
# Conditions: desferrioxamine (DFO) at 100 µM, an iron chelator that mimics hypoxia, for 20 h
# Measurement: 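Firefly luciferase driven by the mouse ldh-a hypoxia-response element, measured after 20 h of 100 µM DFO; z-scores per plate, higher means more signal lost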
# Direction: z-score: higher = stronger loss of HIF reporter signal
# The screen tested about 21,000 reagents; this is an unselected part of those with a known target gene and a result. 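Primary screen; positive scores mean lost reporter signal, so the sign may be inverted from the usual convention.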 A plus sign joins genes that one reagent is predicted to hit.
gene,dsRNA,"z-score, replicate 1","z-score, replicate 2","z-score, replicate 3","z-score, replicate 4"
JhI-21,DRSC02161,-0.3,-0.5,,
Obp28a,DRSC03394,-0.2,0.1,,
amon,DRSC13784,-0.3,-0.1,,
amon,DRSC16900,-0.4,-0.5,-0.1,-0.5
CG3815,DRSC18324,0,-0.3,,
CG12546,DRSC11676,0.3,0.1,,
CG32407,DRSC09789,-0.2,-0.4,,
PCID2,DRSC10822,-0.1,0.7,,
Ilp3,DRSC10168,-0.2,-0.4,,
CG4984 + CG4975,DRSC06907,-0.2,-0.1,,
CG4984 + CG4975,DRSC06908,-0.3,-0.5,,
tub,DRSC12389,-0.3,-0.5,-0.3,-0.3
CG13577,DRSC04213,-0.2,-0.5,,
Cul1,DRSC07645,-0.6,-1,,
Ir56d,DRSC06590,-0.3,-0.5,,
La,DRSC03358,-0.3,0.1,,
Spn42Da,DRSC05025,-0.3,0.2,,
CG34210,DRSC04579,-0.4,-0.4,,
CG1074,DRSC12143,-0.4,-0.3,,
gsb,DRSC04692,-0.4,-0.6,,
bard,DRSC14796,-0.7,-0.1,,
RpL21,DRSC03704,9.3,6.6,,
bam,DRSC16907,-0.4,0.5,,
CG1840,DRSC19806,-0.4,-0.8,,
CG11275,DRSC04095,-0.2,-0.2,,
CG7079,DRSC16192,-0.5,-0.3,,
CG9150,DRSC03148,-0.4,-0.1,,
Cpr64Ad,DRSC08284,-0.1,-0.7,,
CG15160,DRSC02461,-0.4,-0.6,,
CG9899,DRSC04597,-0.3,0,,
Atu,DRSC12123,0.3,0.4,,
Ptp36E,DRSC03021,0.7,-0.1,,
CG2006 + Spase12,DRSC14316,-0.5,0.1,,
CG10853,DRSC08164,-0.2,0.8,,
Atg10 + CG12822,DRSC06796,-0.3,0.2,,
CG13891,DRSC08361,-0.4,0.9,,
CG9921,DRSC20220,-0.4,-0.3,,
CG7326,DRSC20037,0,0.1,,
VAChT,DRSC13311,-0.2,0.1,,
VAChT,DRSC16608,-0.1,-0.1,,
Idgf4,DRSC18675,-0.1,-0.8,,
CR42785,DRSC04962,-0.1,-0.1,,
CG11563,DRSC14327,-0.3,-0.2,,
CG6435,DRSC06987,-0.3,0,,
CG3308,DRSC15474,-0.2,-0.3,,
hrg,DRSC07502,0.9,1.2,,
Sgs8,DRSC11282,-0.2,-0.1,,
ppk9,DRSC04134,-0.2,-0.3,,
ppk9,DRSC04135,-0.3,-0.2,,
Gos28,DRSC16292,-1.4,-0.9,,
Coq2,DRSC16516,-0.3,-0.8,,
Mtl,DRSC16751,-0.3,0.9,,
CG11696,DRSC19417,0.1,-0.3,,
CG14913,DRSC02397,-0.2,0.3,,
Tmtc2,DRSC00272,-0.3,-0.3,,
dare,DRSC07602,-0.2,0,,

Targets above whose target name begins with I or i:
gene,dsRNA,"z-score, replicate 1","z-score, replicate 2","z-score, replicate 3","z-score, replicate 4"
Ilp3,DRSC10168,-0.2,-0.4,,
Ir56d,DRSC06590,-0.3,-0.5,,
Idgf4,DRSC18675,-0.1,-0.8,,
